We go through one compound from paper PMC8153610, “Oleacein Intestinal Permeation and Metabolism in Rats Using an In Situ Perfusion Technique” (Pharmaceutics, 2021).

For the data set the following is noted: rat, in vivo, 60 min, pH 7. The protocol:
The transport medium (TM; pH 7, 9.7 g/L HBSS buffered with HEPES 10 mM) was used to infuse the compounds via the intestine. […] Red phenol was assayed at 0.1 mg/mL. The stability of these test compounds, sampled at different times, was monitored in the perfusion solution at 37 °C for 60 min.
Differences were considered significant at p < 0.05.

For `COc1ccc2cc([C@H](C)C(=O)O)ccc2c1` [Naproxen], the “Absorption (%)” value came out at 43.96 ± 7.58%.
